The test concerns BDF1 mice, C1498 leukemia ip, median survival T/C. The experiment in a line: NCI In Vivo Anticancer Drug Screen. Data for tumor model C1498 Myeloid Leukemia (intraperitoneal) in B6D2F1 (BDF1) mice. To be noted: T/C endpoint: median survival time, higher T/C = longer survival. How it is done: The antitumor activity of compounds was measured in mice bearing transplantable tumors. Survival or tumor size were measured and the results are expressed as the measurement made in the treated group (T) divided by the measurement made in the vehicle treated control group (C). The tumor model used in this assay is C1498 Myeloid Leukemia (intraperitoneal) in B6D2F1 (BDF1) mice

The mark [1] stands for this setting: dose: 80.0 mg/kg/injection, schedule: Q01DX010 (ip), vehicle: saline.
Where [2] appears, read: dose: 1.0 mg/kg/injection, schedule: Q01DX010 (ip), vehicle: saline.
[3] abbreviates: dose: 50.0 mg/kg/injection, schedule: Q01DX010 (ip), vehicle: saline.
The mark [4] stands for this setting: dose: 100.0 mg/kg/injection, schedule: Q01DX010 (ip), vehicle: saline.
The mark [5] stands for this setting: dose: 200.0 mg/kg/injection, schedule: Q01DX010 (ip), vehicle: saline.
Where [6] appears, read: dose: 12.5 mg/kg/injection, schedule: Q01DX010 (ip), vehicle: saline.
The mark [7] stands for this setting: dose: 25.0 mg/kg/injection, schedule: Q01DX010 (ip), vehicle: saline.
The mark [8] stands for this setting: dose: 40.0 mg/kg/injection, schedule: Q01DX010 (ip), vehicle: saline.
The mark [9] stands for this setting: dose: 64.0 mg/kg/injection, schedule: Q01DX010 (ip), vehicle: saline.
The mark [10] stands for this setting: dose: 2.5 mg/kg/injection, schedule: Q01DX010 (ip), vehicle: saline.
[11] abbreviates: dose: 20.0 mg/kg/injection, schedule: Q01DX010 (ip), vehicle: saline.
[12] abbreviates: dose: 10.0 mg/kg/injection, schedule: Q01DX010 (ip), vehicle: saline.
Where [13] appears, read: dose: 0.5 mg/kg/injection, schedule: Q01DX010 (ip), vehicle: saline.
Setting [14] is: dose: 2.0 mg/kg/injection, schedule: Q01DX010 (ip), vehicle: saline.

Experimental findings from PubChem BioAssay AID312 (DTP/NCI, 2004) are described below.

Each structure is given as a SMILES string. The list is a part of this screen's results and no random one: it gathers tests that were run many times, whatever their T/C, doses with no T/C, and many T/C values between a quarter and a half above the control. Further doses and runs are listed elsewhere. T/C gives the treated animals as a percentage of the vehicle group. Some doses have a count of surviving animals in place of a T/C: the source holds a T/C of zero for them, seemingly a mark for toxic or unscored doses. Some survivor counts are full or nearly so, which does not show that the dose was tolerated: survival well below the control is almost never listed, so the zero probably covers shortened survival too. Survivors were counted at the toxicity check, usually on the fifth day, unless a day is given; later deaths do not show. Schedule codes are those of the source, taken here to give the interval after Q, in days (D) or hours (H), and the number of doses after X. Some entries hold several experiments; the values are given in rising order. Where survival is the endpoint, the PubChem record calls one and a half times the control and up active, and a quarter to a half above the control has no call in these data; cut-offs in other NCI protocols can differ. Some T/C values are followed by the survivors on the day toxicity was checked, most often the fifth; where none is given, no animal had died by that day.

On to `C#CCN(C)Cc1ccccc1`, for which the survivor count (dose: 400.0 mg/kg/injection, schedule: Q01DX010 (ip), vehicle: saline) is 0 of 6.

In the case of `C[C@]12C=CC(=O)C=C1CC[C@@H]1[C@@H]2[C@@H](O)C[C@@]2(C)[C@H]1CC[C@]2(O)C(=O)CO`, the survivor count is, setting by setting: (dose: 12.5 mg/kg/injection, schedule: Q01DX010 (sc), vehicle: steroid suspending solution) 6 of 6; (dose: 25.0 mg/kg/injection, schedule: Q01DX010 (sc), vehicle: steroid suspending solution) 6 of 6; (dose: 50.0 mg/kg/injection, schedule: Q01DX010 (sc), vehicle: steroid suspending solution) 6 of 6; (dose: 100.0 mg/kg/injection, schedule: Q01DX010 (sc), vehicle: steroid suspending solution) 6 of 6.

For `CN(C)c1ccc(Nc2c3ccccc3nc3ccccc23)cc1`, the T/C by setting is: (dose: 54.0 mg/kg/injection, schedule: Q01DX010 (ip), vehicle: saline) 127 % of control; under setting [1], 145 % of control.

Turning to `Nc1nc(=S)c2ncn(C3OC(CO)C(O)C3O)c2[nH]1` (stereo not drawn), the T/C under setting [2] was 130 and 131 % of control.

Consider `Cc1cc2nc3c(=O)[nH]c(=O)nc-3n(CC(O)C(O)C(O)C(O)CO)c2cc1C` (stereo not drawn), for which the survivor count runs as follows: under setting [3], 7 of 7; under setting [4], 7 of 7; under setting [5], 7 of 7.

Consider `CCOC(N)=O`, for which the survivor count (dose: 1000.0 mg/kg/injection, schedule: Q01DX010 (ip), vehicle: saline) was 5 of 6 and 6 of 6.

For `COc1cccc2c1C(=O)c1c(O)c3c(c(O)c1C2=O)C[C@@](O)(C(C)=O)C[C@@H]3OC1CC(N)C(O)C(C)O1` (stereo partly drawn), the survivor count (dose: 5.0 mg/kg/injection, schedule: Q01DX010 (ip), vehicle: other) is 6 of 6 and the survivor count (dose: 10.0 mg/kg/injection, schedule: Q01DX010 (ip), vehicle: other) was 6 of 6. For the same compound, the T/C runs as follows: (dose: 625.0 micrograms/kg/injection, schedule: Q01DX010 (ip), vehicle: saline) 136 % of control; (dose: 1250.0 micrograms/kg/injection, schedule: Q01DX010 (ip), vehicle: saline) 136 % of control.

As for `O=C(O)CCCc1ccc(N(CCCl)CCCl)cc1`, the T/C under setting [6] is 130 % of control. For the same compound, under setting [7], the survivor count is 0 of 6.

`C=CC(CN1CC1)OC(C)=O` (stereo not drawn): the T/C (dose: 8.0 mg/kg/injection, schedule: Q01DX010 (ip), vehicle: saline) was 136 % of control.

For the compound `C[C@@H]1C[C@@H]([C@H](O)CC2CC(=O)NC(=O)C2)C(=O)[C@@H](C)C1`, under setting [8], the T/C was 128 % of control.

For the compound `Nc1nc(=S)c2[nH]cnc2[nH]1`, the T/C (dose: 27.0 mg/kg/injection, schedule: Q01DX001 (ip), vehicle: alkali diluted with saline) was 130 % of control; the T/C (dose: 40.0 mg/kg/injection, schedule: Q01DX001 (ip), vehicle: alkali diluted with saline, evaluated on day 45) was 137 % of control; the T/C (dose: 40.0 mg/kg/injection, schedule: Q01DX001 (ip), vehicle: alkali diluted with saline, evaluated on day 60) was 130 % of control; the T/C (dose: 60.0 mg/kg/injection, schedule: Q01DX001 (ip), vehicle: alkali diluted with saline, evaluated on day 45) was 145 % of control; the T/C (dose: 60.0 mg/kg/injection, schedule: Q01DX001 (ip), vehicle: alkali diluted with saline, evaluated on day 60) was 131 % of control [9 of 10 alive on day 6].

With `CS(=O)(=O)OCCCCOS(C)(=O)=O`, the T/C (dose: 6.25 mg/kg/injection, schedule: Q01DX010 (ip), vehicle: saline) was 131 % of control and the T/C under setting [7] was 128 % of control.

For the compound `COc1cc(C(=O)O)c2c(c1C)OC(=O)c1c(C)cc(O)c(C=O)c1O2`, the survivor count under setting [9] was 3 of 6.

For `Nc1nc2n[nH]nc2c(=O)[nH]1`, the survivor count (dose: 200.0 mg/kg/injection, schedule: Q01DX010 (ip), vehicle: alkali diluted with saline) is 6 of 6.

Regarding `NC(Cc1ccc(N(CCCl)CCCl)cc1)C(=O)O` (stereo not drawn), under setting [10], the T/C was 146 % of control. Under setting [11], the survivor count is given as 6 of 6.

For the compound `O=[n+]1c2c(n([O-])c3ccccc31)-c1cccc3cccc-2c13`, the survivor count is recorded as 6 of 6 under setting [7], 6 of 6 under setting [3], 6 of 6 under setting [4] and 6 of 6 under setting [5].

On to `O=C(O)c1[nH]c(=O)[nH]c(=O)c1F`, for which the T/C under setting [10] was 125 % of control.

With `Cc1cc(N(CCCl)CCCl)ccc1N=Nc1ccccc1C(=O)O`, the T/C under setting [12] is 131 % of control [5 of 6 alive]. In addition, the survivor count reads like this: under setting [8], 6 of 6; under setting [1], 5 of 6.

As to `COc1cc(-c2ccc(Nc3ccccc3C(=O)O)c(OC)c2)ccc1N`, under setting [8], the T/C was 130 % of control. Further, the survivor count under setting [1] is given as 0 of 6.

Turning to `CS(=O)(=O)OCCN(CCOS(C)(=O)=O)c1ccc(N=O)cc1`, the T/C runs as follows: under setting [13], 136 % of control; under setting [2], 131 % of control. Under setting [14], the survivor count is given as 6 of 6.

`CCCSc1ncnc2nc[nH]c12`: the survivor count (dose: 250.0 mg/kg/injection, schedule: Q01DX010 (ip), vehicle: saline) is listed as 0 of 6.

Take `C1CN1c1nc(N2CC2)nc(N2CC2)n1`: the survivor count runs as follows: under setting [2], 6 of 6; under setting [14], 0 of 6.

For `O=c1[nH]c(=O)n(C2CC(O)C(CO)O2)cc1F` (stereo not drawn), the T/C by setting is: under setting [11], 126 and 127 % of control; under setting [8], 138 % of control.

For `CCN(CC)CCNc1ccc(C)c2sc3ccccc3c(=O)c12`, the survivor count under setting [5] is recorded as 6 of 6.

Turning to `O=c1c(O)cccc2cc(O)c(O)c(O)c12`, the survivor count by setting is: under setting [4], 6 of 6; under setting [5], 6 of 6.

In the case of `O=c1[nH]cc(F)c(=O)[nH]1`, the T/C reads like this: (dose: 5.0 mg/kg/injection, schedule: Q01DX010 (ip), vehicle: saline) 131 % of control; under setting [12], 131 % of control. Also, the survivor count under setting [8] is given as 6 of 6.

`O=C(Nc1ccc(C2=NCCN2)cc1)c1cccc(C(=O)Nc2ccc(C3=NCCN3)cc2)c1`: the T/C under setting [9] is 138 and 142 % of control.

For the compound `O=C(Nc1ccc(NC2=NCCN2)cc1)c1ccc(C(=O)Nc2ccc(NC3=NCCN3)cc2)cc1`, the T/C (dose: 4.0 mg/kg/injection, schedule: Q01DX010 (ip), vehicle: saline) was 127 and 133 % of control.

Consider `CS(=O)(=O)OCCCl`, for which, under “dose: 150.0 mg/kg/injection, schedule: Q01DX010 (ip), vehicle: saline”, the survivor count was 3 of 6.

In the case of `COc1cc(-c2ccc(Nc3ccccc3C(=O)O)c(OC)c2)ccc1Nc1ccccc1C(=O)O`, under setting [5], the survivor count is 6 of 6.

`O[C@H](CN1CC1)[C@@H](O)CN1CC1`: the T/C is 130 % of control (dose: 125.0 micrograms/kg/injection, schedule: Q01DX010 (ip), vehicle: saline) and 146 % of control (dose: 250.0 micrograms/kg/injection, schedule: Q01DX010 (ip), vehicle: saline).

Take `CN(C)/N=N/c1nc[nH]c1C(N)=O`: the T/C by setting is: under setting [3], 127 % of control; under setting [4], 131 % of control.

Turning to `N=[N+]=CC(=O)OCC(N)C(=O)O` (stereo not drawn), the T/C is 145 % of control (dose: 3.13 mg/kg/injection, schedule: Q01DX010 (ip), vehicle: saline) and 145 % of control under setting [6]. In addition, the survivor count under setting [7] is on record as 6 of 6.

In the case of `CS(=O)(=O)OCCC(=O)N1CCN(C(=O)CCOS(C)(=O)=O)CC1`, the T/C under setting [3] was 135 % of control.

Consider `CN(C)[C@@H]1C(=O)C(C(N)=O)=C(O)[C@@]2(O)C(=O)C3=C(O)c4c(O)cccc4C[C@H]3C[C@@H]12`, for which the survivor count (dose: 60.0 mg/kg/injection, schedule: Q01DX010 (ip), vehicle: saline) is reported as 6 of 6.

For the compound `CC(=O)NC1=C(N2CC2)C(=O)C(NC(C)=O)=C(N2CC2)C1=O`, the T/C is 125 % of control (dose: 0.25 mg/kg/injection, schedule: Q01DX010 (ip), vehicle: saline); 133 % of control under setting [13]; 129 % of control under setting [2].

With `N#CCSc1ncnc2nc[nH]c12`, the survivor count was 4 of 6 (dose: 120.0 mg/kg/injection, schedule: Q01DX010 (ip), vehicle: saline) and 3 of 6 (dose: 240.0 mg/kg/injection, schedule: Q01DX010 (ip), vehicle: saline).
